These results are taken from US20170129957A1 (BERGENBIO ASA, published 2017).

These are yes or no findings as the source states them, for the method shown. Some binding calls cover weakened binding; strength is not graded here.

Experiment [1] has as its target rhesus monkey Axl-Fc chimeric protein (rhesus monkey) (UniProt G7NLI7). Description: SPR (Biacore 3000), rhe-Axl-Fc immobilised on CM5 at 1,515.9 RU, MAb 1H12 injected at 10 µg/mL, 25 °C.
For experiment [2] the target is unchanged. The experiment can be described thus: SPR (Biacore 3000, 25 °C), rhe-Axl-Fc immobilised on CM5 chip, 1H12 at 10 µg/mL.

B1: mouse anti-Axl monoclonal antibody 1H12 (antibody, V domains shown)
VH: EVKLVESGGDLVKPGGSLKLSCAASGFTFSSYGMSWVRQTPDKRLEWVATISSGGSYTYYPDSVKGRFTISRDNAKNTLYLQMSSLKSEDTAMYYCARHPIYYTYDDTMDYWGQGTSVTVSS
VL: DIVLTQSPAIMAASPGEKVTMTCSASSSVSSGNFHWYQQKPGTSPKLWIYRTSNLASGVPARFSGSGSGTSYSLTISSMEAEDAATYYCQQWSGYPWTFGGGTKLEIK
notes: also called MAb 1H12; m 1H12
Consider B1, for which the binding entry in experiment [1] and in experiment [2] was “binds” throughout.
